# According to the supplement of paper PMC8728848:
# The list shows a part of the results.
# B1: Pwp7 (Candida glabrata) (protein)
# chain: MGSSHHHHHHSSGLVPRGSHMASKNPVDFPNLCQYPNLDGAVAGFDTEIYNADPSILINFSLWPILQFPKEWHKTIGRAITTQTNFKLPASDTTLFGVSIPTQNILIEFRGYFIPPKSGTYTFALYLTDDGSAMFLGNDAAFPCGNITSWSNPTNDQVSVSDYDPKKKTLTVYMVAGVAYPLRIAYYNREKGGSLTASFVDPDGLTHSDWNGYIWTLPSCDNCKYS
# Key:
# Assay in all cases: glycan array binding signal (z-score within array); higher = stronger binding
# Settings in all cases: glycan notation: IUPAC condensed, linker removed
# Fuc(a1-2)Gal = molecular target: Fuc(a1-2)Gal
# Summary of the method: (§1)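 Negative Z-scores can be read as non-binding. The Z-score is calculated within each array and then averaged across arrays of one protein sequence at different concentrations or buffers and across linkers. Arrays, 3228 in all, were curated from the Consortium for Functional Glycomics database and kept only where the protein sequence was available.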
# Fuc(a1-2)Gal(b1-3)GalNAc = molecular target: Fuc(a1-2)Gal(b1-3)GalNAc
# Summary of the method: as §1
# [1] = molecular target: Fuc(a1-2)Gal(b1-3)GalNAc(a1-3)[Fuc(a1-2)]Gal(b1-4)Glc
# Summary of the method: as §1
# [2] = molecular target: Fuc(a1-2)Gal(b1-3)GalNAc(a1-3)[Fuc(a1-2)]Gal(b1-4)GlcNAc
# Summary of the method: as §1
# [3] = molecular target: Fuc(a1-2)Gal(b1-3)GalNAc(b1-3)Gal
# Summary of the method: as §1
# [4] = molecular target: Fuc(a1-2)Gal(b1-3)GalNAc(b1-3)Gal(a1-4)Gal(b1-4)Glc
# Summary of the method: as §1
# [5] = molecular target: Fuc(a1-2)Gal(b1-3)GalNAc(b1-4)[Neu5Ac(a2-3)]Gal(b1-4)Glc
# Summary of the method: as §1
# Fuc(a1-2)Gal(b1-3)GlcNAc = molecular target: Fuc(a1-2)Gal(b1-3)GlcNAc
# Summary of the method: as §1
# [6] = molecular target: Fuc(a1-2)Gal(b1-3)GlcNAc(b1-2)Man(a1-3)[Fuc(a1-2)Gal(b1-3)GlcNAc(b1-2)Man(a1-6)]Man(b1-4)GlcNAc(b1-4)GlcNAc
# Summary of the method: as §1
# [7] = molecular target: Fuc(a1-2)Gal(b1-3)GlcNAc(b1-2)Man(a1-3)[Fuc(a1-2)Gal(b1-3)GlcNAc(b1-2)Man(a1-6)]Man(b1-4)GlcNAc(b1-4)[Fuc(a1-6)]GlcNAc
# Summary of the method: as §1
# [8] = molecular target: Fuc(a1-2)Gal(b1-3)GlcNAc(b1-3)Gal(b1-4)Glc
# Summary of the method: as §1
# [9] = molecular target: Fuc(a1-2)Gal(b1-3)GlcNAc(b1-3)GalNAc
# Summary of the method: as §1
# [10] = molecular target: Fuc(a1-2)Gal(b1-3)GlcNAc(b1-3)[Fuc(a1-2)Gal(b1-3)GlcNAc(b1-6)]GalNAc
# Summary of the method: as §1
# [11] = molecular target: Fuc(a1-2)Gal(b1-3)GlcNAc(b1-3)[Gal(b1-4)GlcNAc(b1-6)]Gal(b1-4)Glc
# Summary of the method: as §1
# [12] = molecular target: Fuc(a1-2)Gal(b1-3)GlcNAc(b1-3)[Neu5Ac(a2-6)Gal(b1-4)GlcNAc(b1-6)]Gal(b1-4)Glc
# Summary of the method: as §1
# [13] = molecular target: Fuc(a1-2)Gal(b1-3)GlcNAc6S
# Summary of the method: as §1
# [14] = molecular target: Fuc(a1-2)Gal(b1-3)[Fuc(a1-4)]GlcNAc
# Summary of the method: as §1
# [15] = molecular target: Fuc(a1-2)Gal(b1-3)[Fuc(a1-4)]GlcNAc(b1-2)Man(a1-3)[Fuc(a1-2)Gal(b1-3)[Fuc(a1-4)]GlcNAc(b1-2)Man(a1-3)]Man(b1-4)GlcNAc(b1-4)GlcNAc
# Summary of the method: as §1
# [16] = molecular target: Fuc(a1-2)Gal(b1-3)[Fuc(a1-4)]GlcNAc(b1-2)Man(a1-3)[Fuc(a1-2)Gal(b1-3)[Fuc(a1-4)]GlcNAc(b1-2)Man(a1-6)]Man(b1-4)GlcNAc(b1-4)[Fuc(a1-6)]GlcNAc(b1-4)[Fuc(a1-6)]GlcNAc
# Summary of the method: as §1
# [17] = molecular target: Fuc(a1-2)Gal(b1-3)[Fuc(a1-4)]GlcNAc(b1-3)[Fuc(a1-3)[Gal(b1-4)]GlcNAc(b1-6)]Gal(b1-4)Glc
# Summary of the method: as §1
# [18] = molecular target: Fuc(a1-2)Gal(b1-3)[Fuc(a1-4)]GlcNAc(b1-3)[Gal(b1-4)GlcNAc(b1-6)]Gal(b1-4)Glc
# Summary of the method: as §1
# Fuc(a1-2)Gal(b1-4)Glc = molecular target: Fuc(a1-2)Gal(b1-4)Glc
# Summary of the method: as §1
# Fuc(a1-2)Gal(b1-4)Glc6S = molecular target: Fuc(a1-2)Gal(b1-4)Glc6S
# Summary of the method: as §1
# Fuc(a1-2)Gal(b1-4)GlcNAc = molecular target: Fuc(a1-2)Gal(b1-4)GlcNAc
# Summary of the method: as §1
# [19] = molecular target: Fuc(a1-2)Gal(b1-4)GlcNAc(b1-2)Man
# Summary of the method: as §1
# [20] = molecular target: Fuc(a1-2)Gal(b1-4)GlcNAc(b1-2)Man(a1-3)[Fuc(a1-2)Gal(b1-4)GlcNAc(b1-2)Man(a1-6)]Man(b1-4)GlcNAc(b1-4)GlcNAc
# Summary of the method: as §1
# [21] = molecular target: Fuc(a1-2)Gal(b1-4)GlcNAc(b1-2)Man(a1-3)[Fuc(a1-2)Gal(b1-4)GlcNAc(b1-2)Man(a1-6)]Man(b1-4)GlcNAc(b1-4)[Fuc(a1-6)]GlcNAc
# Summary of the method: as §1
# [22] = molecular target: Fuc(a1-2)Gal(b1-4)GlcNAc(b1-2)[Fuc(a1-2)Gal(b1-4)GlcNAc(b1-4)]Man(a1-3)[Fuc(a1-2)Gal(b1-4)GlcNAc(b1-2)Man(a1-6)]Man(b1-4)GlcNAc(b1-4)GlcNAc
# Summary of the method: as §1
# [23] = molecular target: Fuc(a1-2)Gal(b1-4)GlcNAc(b1-3)Gal(b1-4)GlcNAc
# Summary of the method: as §1
# [24] = molecular target: Fuc(a1-2)Gal(b1-4)GlcNAc(b1-3)Gal(b1-4)GlcNAc(b1-2)Man(a1-3)[Fuc(a1-2)Gal(b1-4)GlcNAc(b1-3)Gal(b1-4)GlcNAc(b1-2)Man(a1-6)]Man(b1-4)GlcNAc(b1-4)GlcNAc
# Summary of the method: as §1
# [25] = molecular target: Fuc(a1-2)Gal(b1-4)GlcNAc(b1-3)Gal(b1-4)GlcNAc(b1-3)Gal(b1-4)GlcNAc
# Summary of the method: as §1
# [26] = molecular target: Fuc(a1-2)Gal(b1-4)GlcNAc(b1-3)GalNAc
# Summary of the method: as §1
# [27] = molecular target: Fuc(a1-2)Gal(b1-4)GlcNAc(b1-3)[Fuc(a1-2)Gal(b1-4)GlcNAc(b1-6)]GalNAc
# Summary of the method: as §1
# [28] = molecular target: Fuc(a1-2)Gal(b1-4)GlcNAc(b1-3)[Fuc(a1-3)[Gal(b1-4)]GlcNAc(b1-6)]Gal(b1-4)Glc
# Summary of the method: as §1
# [29] = molecular target: Fuc(a1-2)Gal(b1-4)GlcNAc(b1-6)GalNAc
# Summary of the method: as §1
# [30] = molecular target: Fuc(a1-2)Gal(b1-4)GlcNAc6S
# Summary of the method: as §1
# [31] = molecular target: Fuc(a1-2)Gal(b1-4)[Fuc(a1-3)]GlcNAc
# Summary of the method: as §1
# [32] = molecular target: Fuc(a1-2)Gal(b1-4)[Fuc(a1-3)]GlcNAc(b1-2)Man(a1-3)[Fuc(a1-2)Gal(b1-4)[Fuc(a1-3)]GlcNAc(b1-2)Man(a1-6)]Man(b1-4)GlcNAc(b1-4)[Fuc(a1-6)]GlcNAc
# Summary of the method: as §1
# [33] = molecular target: Fuc(a1-2)Gal(b1-4)[Fuc(a1-3)]GlcNAc(b1-2)[Fuc(a1-2)Gal(b1-4)[Fuc(a1-3)]GlcNAc(b1-4)]Man(a1-3)[Fuc(a1-2)Gal(b1-4)[Fuc(a1-3)]GlcNAc(b1-2)Man(a1-6)]Man(b1-4)GlcNAc(b1-4)GlcNAc
# Summary of the method: as §1
# [34] = molecular target: Fuc(a1-2)Gal(b1-4)[Fuc(a1-3)]GlcNAc(b1-3)Gal(b1-4)[Fuc(a1-3)]GlcNAc
# Summary of the method: as §1
# [35] = molecular target: Fuc(a1-2)Gal(b1-4)[Fuc(a1-3)]GlcNAc(b1-3)Gal(b1-4)[Fuc(a1-3)]GlcNAc(b1-3)Gal(b1-4)[Fuc(a1-3)]GlcNAc
# Summary of the method: as §1
# [36] = molecular target: Fuc(a1-2)Gal(b1-4)[Fuc(a1-3)]GlcNAc(b1-3)GalNAc
# Summary of the method: as §1
# [37] = molecular target: Fuc(a1-2)Gal(b1-4)[Fuc(a1-3)]GlcNAc(b1-3)[Neu5Ac(a2-6)Gal(b1-4)GlcNAc(b1-6)]Gal(b1-4)Glc
# Summary of the method: as §1
# [38] = molecular target: Fuc(a1-2)Gal3S(b1-4)GlcNAc
# Summary of the method: as §1
# [39] = molecular target: Fuc(a1-2)Gal6S(b1-3)GlcNAc
# Summary of the method: as §1
binder,measurement,setting,value
B1,glycan array binding signal (z-score),Fuc(a1-2)Gal,-0.511
same,glycan array binding signal (z-score),Fuc(a1-2)Gal(b1-3)GalNAc,-0.714
same,glycan array binding signal (z-score),[1],-0.521
same,glycan array binding signal (z-score),[2],-0.618
same,glycan array binding signal (z-score),[3],-0.017
same,glycan array binding signal (z-score),[4],0.134
same,glycan array binding signal (z-score),[5],0.482
same,glycan array binding signal (z-score),Fuc(a1-2)Gal(b1-3)GlcNAc,-1.06
same,glycan array binding signal (z-score),[6],1.13
same,glycan array binding signal (z-score),[7],-0.26
same,glycan array binding signal (z-score),[8],-0.724
same,glycan array binding signal (z-score),[9],-0.404
same,glycan array binding signal (z-score),[10],-0.113
same,glycan array binding signal (z-score),[11],0.936
same,glycan array binding signal (z-score),[12],-0.602
same,glycan array binding signal (z-score),[13],-0.515
same,glycan array binding signal (z-score),[14],-0.614
same,glycan array binding signal (z-score),[15],0.089
same,glycan array binding signal (z-score),[16],0.873
same,glycan array binding signal (z-score),[17],-0.54
same,glycan array binding signal (z-score),[18],-0.297
same,glycan array binding signal (z-score),Fuc(a1-2)Gal(b1-4)Glc,-0.416
same,glycan array binding signal (z-score),Fuc(a1-2)Gal(b1-4)Glc6S,-0.939
same,glycan array binding signal (z-score),Fuc(a1-2)Gal(b1-4)GlcNAc,-1.12
same,glycan array binding signal (z-score),[19],0.294
same,glycan array binding signal (z-score),[20],0.251
same,glycan array binding signal (z-score),[21],0.204
same,glycan array binding signal (z-score),[22],0.006
same,glycan array binding signal (z-score),[23],-0.579
same,glycan array binding signal (z-score),[24],0.002
same,glycan array binding signal (z-score),[25],-0.218
same,glycan array binding signal (z-score),[26],0.314
same,glycan array binding signal (z-score),[27],0.452
same,glycan array binding signal (z-score),[28],-0.579
same,glycan array binding signal (z-score),[29],0.714
same,glycan array binding signal (z-score),[30],-0.996
same,glycan array binding signal (z-score),[31],-1.13
same,glycan array binding signal (z-score),[32],0.615
same,glycan array binding signal (z-score),[33],-0.121
same,glycan array binding signal (z-score),[34],-0.47
same,glycan array binding signal (z-score),[35],-0.375
same,glycan array binding signal (z-score),[36],0.409
same,glycan array binding signal (z-score),[37],-0.059
same,glycan array binding signal (z-score),[38],-0.318
same,glycan array binding signal (z-score),[39],-0.966

# No new results follow: an excerpt of the list.
binder,measurement,setting,value
B1,glycan array binding signal (z-score),[29],0.714
same,glycan array binding signal (z-score),[30],-0.996
same,glycan array binding signal (z-score),[31],-1.13
